In US20160166700A1, “METHOD FOR AMELIORATING LIVER FIBROSIS BY USING NANOPARTICLE CONTAINING TYROSINE KINASE INHIBITOR” (National Tsing Hua University, priority 2014, published 2016):
Some results were stated once for a whole list of compounds, not compound by compound.

Test system: human umbilical vein endothelial cell (HUVEC)
Type: cell-based
Details: HUVECs; MTT after 48 or 72 hours; FIG. 5A

## CNC(=O)c1cc(Oc2ccc(NC(=O)Nc3ccc(Cl)c(C(F)(F)F)c3)cc2)ccn1 [free sorafenib, sorafenib]
  cell viability: below 50%
